# Measurements as given in PMC10143440.
# By UniProt entry, the sequences of proteins in these tests, tags left out. Residues count along the entry.
# UniProt P62812, residues 28-455: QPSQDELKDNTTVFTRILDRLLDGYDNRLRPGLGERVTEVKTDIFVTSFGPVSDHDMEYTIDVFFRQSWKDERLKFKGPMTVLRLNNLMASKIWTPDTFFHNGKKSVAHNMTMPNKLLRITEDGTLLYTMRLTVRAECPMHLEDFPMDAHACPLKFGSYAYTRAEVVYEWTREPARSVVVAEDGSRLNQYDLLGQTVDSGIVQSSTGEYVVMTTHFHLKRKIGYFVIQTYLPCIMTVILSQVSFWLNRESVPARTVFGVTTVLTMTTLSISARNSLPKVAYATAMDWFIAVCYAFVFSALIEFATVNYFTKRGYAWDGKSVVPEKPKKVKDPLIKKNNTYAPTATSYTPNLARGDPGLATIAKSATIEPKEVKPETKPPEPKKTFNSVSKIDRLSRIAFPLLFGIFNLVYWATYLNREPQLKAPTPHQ
# UniProt P16305, residues 20-453: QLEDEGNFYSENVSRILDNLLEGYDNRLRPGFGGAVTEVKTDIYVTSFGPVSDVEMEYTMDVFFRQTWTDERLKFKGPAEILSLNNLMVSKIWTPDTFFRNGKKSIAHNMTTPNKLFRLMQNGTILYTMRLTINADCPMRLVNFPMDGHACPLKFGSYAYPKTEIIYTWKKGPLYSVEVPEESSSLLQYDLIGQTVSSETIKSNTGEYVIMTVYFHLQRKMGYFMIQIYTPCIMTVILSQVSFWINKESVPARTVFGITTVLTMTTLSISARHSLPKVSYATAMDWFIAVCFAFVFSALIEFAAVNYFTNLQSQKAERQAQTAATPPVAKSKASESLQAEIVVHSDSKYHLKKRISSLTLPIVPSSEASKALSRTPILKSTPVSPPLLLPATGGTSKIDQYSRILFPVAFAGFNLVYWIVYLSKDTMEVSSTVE
# UniProt Q69ZK9, residues 15-836: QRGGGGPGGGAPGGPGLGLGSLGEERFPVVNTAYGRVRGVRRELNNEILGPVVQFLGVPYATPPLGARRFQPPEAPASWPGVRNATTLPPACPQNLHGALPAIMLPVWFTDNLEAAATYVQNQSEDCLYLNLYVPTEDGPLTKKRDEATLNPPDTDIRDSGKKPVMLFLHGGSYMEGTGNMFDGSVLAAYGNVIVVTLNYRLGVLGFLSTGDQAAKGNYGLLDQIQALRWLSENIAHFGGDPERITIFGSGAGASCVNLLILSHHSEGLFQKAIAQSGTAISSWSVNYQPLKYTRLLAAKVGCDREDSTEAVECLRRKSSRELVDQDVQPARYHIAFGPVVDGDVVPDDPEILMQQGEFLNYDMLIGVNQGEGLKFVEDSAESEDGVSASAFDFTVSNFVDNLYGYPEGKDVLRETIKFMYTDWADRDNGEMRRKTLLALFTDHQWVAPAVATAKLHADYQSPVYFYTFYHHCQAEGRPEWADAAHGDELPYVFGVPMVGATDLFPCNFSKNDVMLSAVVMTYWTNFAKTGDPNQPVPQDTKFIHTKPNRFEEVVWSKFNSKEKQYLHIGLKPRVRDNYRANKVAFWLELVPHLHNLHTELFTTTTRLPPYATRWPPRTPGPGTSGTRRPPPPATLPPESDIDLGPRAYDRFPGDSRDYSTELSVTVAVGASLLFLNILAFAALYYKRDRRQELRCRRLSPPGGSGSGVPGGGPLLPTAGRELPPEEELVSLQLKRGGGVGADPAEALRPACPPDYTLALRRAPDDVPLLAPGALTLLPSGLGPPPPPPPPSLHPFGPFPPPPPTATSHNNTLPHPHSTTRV
# Assays:
# [1] = target: GABAA receptor α1 subunit (Gabra1) (mouse (endogenous in cerebellum)) (UniProt P62812); assay: affinity purification with mass spectrometry; IP with anti-Gabra1 (N95/35) or anti-Gabra6 (Gabra6-a N229A/32, Gabra6-b custom) antibody from mouse cerebellum extract in 1% MNG, 25 mM HEPES, 150 mM NaCl, pH 7.4, overnight 4 °C; protein A/G agarose; washes 0.1% MNG; SDS-PAGE, LC-MS (DDA, iBAQ)
# [2] = target: GABAA receptor α6 subunit (Gabra6) (mouse (endogenous in cerebellum)) (UniProt P16305); assay: as above
binding [1],binding [2],Substance
binds,binds,Neuroligin-2 (Nlgn2) (from UniProt Q69ZK9 15-836)
,binds,GABAA receptor δ subunit (Gabrd) (from UniProt P22933 25-449)

# Results are given in words; binding and its absence hold for the method and conditions named. In cells and extracts the contact can be indirect. A yes stands for co-enrichment or nearness to the bait. Other partners may have been found.
